Test: general procedure: Fmoc solid-phase peptide synthesis; 1,4-diaminobutane trityl resin
Conditions: whole synthesis, scale 0.4 mmol, side-chain lactam ring, sequence written open

Substance: Ac-Nle-Glu-His-D-Phe(4-F)-Arg-Trp-NH(CH2)4NH2
- isolated mass: 97.2 mg
- isolated yield: 19.8%

Source: US12692291B2 (Boehringer Ingelheim International GmbH, priority 2020, dated 2026)
